No constants are given. Whether binding was seen depends on the method and setting. Binding seen in cells or lysates may run through a third protein. Some binding calls cover weakened binding; strength is not graded here. For some assays here: Where a sequence is shown, tags or fusion partners need not be part of it. Values belong to the molecule of their own block, whether it stands above or below them.
Tests used:
[1] = biological target: T1, PTK7-FLAG (human PTK7 with a C-terminal FLAG tag) (human) (UniProt Q13308); experiment: co-IP; HEK293 cells co-expressing PTK7-FLAG and KDR-HA, incubated 2 h with bovine IgG (10 ug/mL), sPTK7 (4 ug/mL) or anti-PTK7 mAbs (10 ug/mL); NP-40 lysis buffer; precipitated with anti-FLAG M2 antibodies; Western blot with anti-HA
T1 sequence: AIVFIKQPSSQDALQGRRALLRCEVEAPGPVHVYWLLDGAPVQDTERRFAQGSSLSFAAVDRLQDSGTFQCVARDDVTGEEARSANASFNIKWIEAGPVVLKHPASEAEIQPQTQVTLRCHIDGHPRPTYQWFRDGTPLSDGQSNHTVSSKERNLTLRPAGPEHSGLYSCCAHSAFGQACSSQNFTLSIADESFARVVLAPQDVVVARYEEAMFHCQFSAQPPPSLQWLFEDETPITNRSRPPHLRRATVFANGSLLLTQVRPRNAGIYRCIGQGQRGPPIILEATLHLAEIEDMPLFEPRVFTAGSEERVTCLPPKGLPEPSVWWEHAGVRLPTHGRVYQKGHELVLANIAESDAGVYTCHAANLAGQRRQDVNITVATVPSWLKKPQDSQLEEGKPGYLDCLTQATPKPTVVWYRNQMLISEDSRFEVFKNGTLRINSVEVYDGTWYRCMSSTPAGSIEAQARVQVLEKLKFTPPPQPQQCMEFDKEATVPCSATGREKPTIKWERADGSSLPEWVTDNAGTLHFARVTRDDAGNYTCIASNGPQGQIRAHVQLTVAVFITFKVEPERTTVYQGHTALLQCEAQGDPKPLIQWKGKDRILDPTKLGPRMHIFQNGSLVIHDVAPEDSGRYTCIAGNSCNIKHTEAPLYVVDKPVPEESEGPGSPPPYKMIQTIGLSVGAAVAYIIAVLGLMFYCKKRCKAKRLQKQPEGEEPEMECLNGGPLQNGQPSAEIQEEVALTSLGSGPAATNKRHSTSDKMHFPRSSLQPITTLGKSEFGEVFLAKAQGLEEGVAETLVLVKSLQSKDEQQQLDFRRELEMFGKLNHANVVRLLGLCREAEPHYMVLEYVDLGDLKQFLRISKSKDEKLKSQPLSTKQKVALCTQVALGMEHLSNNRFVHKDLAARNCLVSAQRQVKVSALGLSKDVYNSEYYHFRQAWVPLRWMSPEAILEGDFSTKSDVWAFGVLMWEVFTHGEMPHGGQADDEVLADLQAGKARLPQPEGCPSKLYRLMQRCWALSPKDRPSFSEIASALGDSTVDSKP

The chains behind the UniProt entries cited, without tags or fusion partners. Residues count along the entry.
UniProt P35968, residues 20-1356: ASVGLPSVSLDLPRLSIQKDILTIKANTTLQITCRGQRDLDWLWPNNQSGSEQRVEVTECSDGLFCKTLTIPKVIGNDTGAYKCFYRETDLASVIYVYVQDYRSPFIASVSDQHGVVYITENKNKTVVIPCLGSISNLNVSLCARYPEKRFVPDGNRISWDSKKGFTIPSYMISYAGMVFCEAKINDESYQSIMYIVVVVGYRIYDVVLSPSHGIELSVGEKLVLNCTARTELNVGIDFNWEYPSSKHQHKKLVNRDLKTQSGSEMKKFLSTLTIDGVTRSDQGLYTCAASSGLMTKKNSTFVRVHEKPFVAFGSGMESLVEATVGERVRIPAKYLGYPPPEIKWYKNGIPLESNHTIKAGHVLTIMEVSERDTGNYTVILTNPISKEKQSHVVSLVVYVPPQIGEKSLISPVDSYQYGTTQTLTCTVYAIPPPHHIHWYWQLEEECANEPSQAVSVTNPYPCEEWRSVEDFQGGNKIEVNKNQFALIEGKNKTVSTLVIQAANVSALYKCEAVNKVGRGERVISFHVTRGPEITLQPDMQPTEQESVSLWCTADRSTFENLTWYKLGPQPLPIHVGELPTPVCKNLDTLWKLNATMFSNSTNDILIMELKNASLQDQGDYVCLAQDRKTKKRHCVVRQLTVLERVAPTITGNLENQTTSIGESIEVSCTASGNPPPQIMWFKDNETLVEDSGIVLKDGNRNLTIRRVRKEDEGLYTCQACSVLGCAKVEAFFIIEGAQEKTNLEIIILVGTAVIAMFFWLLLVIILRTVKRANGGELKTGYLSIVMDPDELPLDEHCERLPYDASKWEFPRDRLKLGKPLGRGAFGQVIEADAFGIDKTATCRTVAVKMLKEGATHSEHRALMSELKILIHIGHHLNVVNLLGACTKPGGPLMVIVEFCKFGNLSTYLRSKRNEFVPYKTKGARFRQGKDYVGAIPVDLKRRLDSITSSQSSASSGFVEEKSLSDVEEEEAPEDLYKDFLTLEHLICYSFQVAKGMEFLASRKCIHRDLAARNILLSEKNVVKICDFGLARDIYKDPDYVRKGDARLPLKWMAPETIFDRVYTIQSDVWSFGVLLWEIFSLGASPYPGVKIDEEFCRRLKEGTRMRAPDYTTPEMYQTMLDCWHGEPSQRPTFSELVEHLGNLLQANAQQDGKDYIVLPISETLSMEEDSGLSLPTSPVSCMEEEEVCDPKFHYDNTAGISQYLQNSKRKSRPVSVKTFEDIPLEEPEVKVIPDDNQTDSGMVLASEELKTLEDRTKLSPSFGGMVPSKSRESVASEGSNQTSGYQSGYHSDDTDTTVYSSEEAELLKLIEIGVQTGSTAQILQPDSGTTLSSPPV

[2] = biological target: KDR-HA (human KDR with a C-terminal HA tag) (human) (UniProt P35968); experiment: co-IP; competition: purified sPTK7 (4 ug/mL) added for 2 h to HEK293 cells co-expressing PTK7-FLAG and KDR-HA; read-out is KDR-HA co-precipitated with PTK7-FLAG by anti-FLAG M2, compared with bovine IgG (10 ug/mL); only the binder purified

- binding [1]: binds
Molecule: KDR-HA (human KDR with a C-terminal HA tag) (from UniProt P35968 20-1356) (receptor)

- binding [2]: binds
B1: soluble PTK7 (sPTK7, the extracellular domain of PTK7) (domain or fragment, UniProt Q13308 31-704)
chain: AIVFIKQPSSQDALQGRRALLRCEVEAPGPVHVYWLLDGAPVQDTERRFAQGSSLSFAAVDRLQDSGTFQCVARDDVTGEEARSANASFNIKWIEAGPVVLKHPASEAEIQPQTQVTLRCHIDGHPRPTYQWFRDGTPLSDGQSNHTVSSKERNLTLRPAGPEHSGLYSCCAHSAFGQACSSQNFTLSIADESFARVVLAPQDVVVARYEEAMFHCQFSAQPPPSLQWLFEDETPITNRSRPPHLRRATVFANGSLLLTQVRPRNAGIYRCIGQGQRGPPIILEATLHLAEIEDMPLFEPRVFTAGSEERVTCLPPKGLPEPSVWWEHAGVRLPTHGRVYQKGHELVLANIAESDAGVYTCHAANLAGQRRQDVNITVATVPSWLKKPQDSQLEEGKPGYLDCLTQATPKPTVVWYRNQMLISEDSRFEVFKNGTLRINSVEVYDGTWYRCMSSTPAGSIEAQARVQVLEKLKFTPPPQPQQCMEFDKEATVPCSATGREKPTIKWERADGSSLPEWVTDNAGTLHFARVTRDDAGNYTCIASNGPQGQIRAHVQLTVAVFITFKVEPERTTVYQGHTALLQCEAQGDPKPLIQWKGKDRILDPTKLGPRMHIFQNGSLVIHDVAPEDSGRYTCIAGNSCNIKHTEAPLYVVDKPVPEESEGPGSPPPYKMIQT

From PMC9496920, “Anti-PTK7 Monoclonal Antibodies Inhibit Angiogenesis by Suppressing PTK7 Function” (Cancers, 2022)
